Data as given in PubChem BioAssay AID1159578 (Peter MacCallum Cancer Centre, 2015)

Screen: 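siRNA pools altering how lymphatic endothelial cells close a scratch wound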 (primary screen)
Cell system: human lymphatic endothelial cells
Reagents: siRNA pool against human genes, 40 nM
Timing: 48 h after transfection
Measured: 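High-content imaging of dye-stained cells in a scratch assay measures filled wound area and nuclei per well; duplicate means given as ratio to mock and robust z-score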
Direction: migration robust z-score: higher = faster migration into the scratch; migration relative to mock: higher = more scratch area covered than mock; nuclei per well: higher = more cells in the well
Rule for the call: 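Pools averaging fewer than 3300 nuclei are never called; remaining pools count as changed when migration robust z lies outside -2 to 2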
Meaning of the calls: active = migration changed; inactive = no migration change, or too few cells
The whole screen tested about 18,000 reagents; this is a random part of them. In the full data, about 1,030 (5.7%) are marked active. 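Inactive calls also include pools with fewer than 3300 nuclei, whose migration was not assessed.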 Raw values vary from plate to plate and are shown uncorrected. Entries without a mark were called inactive.

target,migration robust z-score,migration class with cell-count check,migration relative to mock,"nuclei per well, duplicate mean"
PRKAB2 (GeneID 5565),-0.32,migration z between -2 and 2; enough cells,0.74,4226
TNFRSF11B (GeneID 4982),0.88,migration z between -2 and 2; enough cells,0.98,5638
SLCO1B1 (GeneID 10599),-1.82,migration z between -2 and 2; enough cells,0.46,5024
RNASE7 (GeneID 84659),-2.64 (active),migration z below -2; enough cells,0.3,3407
PDCL3 (GeneID 79031),2.84 (active),migration z above 2; enough cells,1.62,7192
PLK2 (GeneID 10769),-0.72,migration z between -2 and 2; enough cells,0.66,4546
MTDH (GeneID 92140),2.25 (active),migration z above 2; enough cells,1.47,6670
SLC6A2 (GeneID 6530),-1.32,under 3300 nuclei; migration not judged,0.55,3098
SOD1 (GeneID 6647),-2.02 (active),migration z below -2; enough cells,0.42,3938
DIRAS2 (GeneID 54769),-1.03,migration z between -2 and 2; enough cells,0.6,4546
DCLRE1C (GeneID 64421),-0.42,migration z between -2 and 2; enough cells,0.72,6277
GALNT12 (GeneID 79695),-2.1 (active),migration z below -2; enough cells,0.4,6017
LMAN2 (GeneID 10960),-1.97,migration z between -2 and 2; enough cells,0.38,6148
